PubChem BioAssay AID1259308 – NCATS, 2017
The whole screen tested about 59,000 reagents; shown is a random part of them. Over the whole deposit, about 1,510 (2.6%) were called active. 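Calls use total luciferase alone and ignore viability, so some active siRNAs may act by altering cell number.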 Entries without a mark were called inactive. Reagents against one gene are numbered here. Further read-outs or replicates are left out here. No sequences are given here.

- Purpose: 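Candidate targets for better recombinant protein yield in mammalian cells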 (primary screen)
- Cells: human HEK293 embryonic kidney cells stably expressing firefly luciferase (HEK-CMV-Luc2-Hygro)
- Reagents: single siRNA against human genes, 0.8 pmol siRNA per well
- Duration: 72 h
- Measurement: 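Reporter luminescence and viable-cell signal on separate replicate plates, given as percent of non-targeting control and median/MAD z-scores, plus per-cell luciferase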
- Reading the numbers: total luciferase, z-score: higher = more reporter protein produced
- Hit rule: 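An siRNA counts as active if its total luciferase robust z-score exceeds 3; genes with two or more such siRNAs out of three were retested with fresh siRNAs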
- Meaning of the calls: active = raised luciferase; inactive = no rise

Which result is listed for HBD #1?
total luciferase, z-score: 0.31

For HBD #2, how do the results read?
total luciferase, z-score: -1.77

What did the screen give for HBD #3?
total luciferase, z-score: 3.51 (active)

For AQP12A #1, how do the results read?
total luciferase, z-score: -0.139

With AQP12A #2, what was measured?
total luciferase, z-score: 0.0662

What did the screen give for AQP12A #3?
total luciferase, z-score: 0.822

Laid out differently: results already given.
{"gene knocked down": "HBD", "siRNA no.": 1, "total luciferase, z-score": 0.31}
{"gene knocked down": "HBD", "siRNA no.": 2, "total luciferase, z-score": -1.77}

The results go on:
What is on record for FOXE3 #1?
total luciferase, z-score: -1.11

What is on record for FOXE3 #2?
total luciferase, z-score: -0.966

For FOXE3 #3, what was measured?
total luciferase, z-score: 0.435

With PDXDC1 #1, what does the deposit list?
total luciferase, z-score: -0.304

With PDXDC1 #2, what was measured?
total luciferase, z-score: -1.05

What did the screen give for PDXDC1 #3?
total luciferase, z-score: -0.762
